PubChem BioAssay AID330 (DTP/NCI, 2004)
The list shows only some results of the screen, not a fair sample: it gathers tests that were run many times, whatever their T/C, doses with no T/C, and many T/C values between a quarter and a half above the control. Other doses and runs of a compound stand elsewhere. T/C is the treated group as % of the vehicle group. Some doses have a count of surviving animals in place of a T/C: the source holds a T/C of zero for them, seemingly a mark for toxic or unscored doses. Some survivor counts are full or nearly so, which does not show that the dose was tolerated: survival well below the control is almost never listed, so the zero probably covers shortened survival too. Survivors were counted at the toxicity check, usually on the fifth day, unless a day is given; later deaths do not show. Schedules are NCI's codes, read here as Q, the interval in days (D) or hours (H), X, the number of doses. Some entries hold several experiments; the results are listed from low to high. For survival time, the PubChem record calls one and a half times the control and up active, and a quarter to a half above the control has no call in these data; cut-offs in other NCI protocols can differ. Some T/C values carry the count of animals alive at the toxicity check (mostly the fifth day); without a count, all were alive then.

Tested on: P388 leukemia ip, CD2F1 mice, survival T/C
Test: NCI In Vivo Anticancer Drug Screen. Data for tumor model P388 Leukemia (intraperitoneal) in CD2F1 (CDF1) mice
Conditions: T/C endpoint: median survival time, higher T/C = longer survival
[1] = dose: 12.5 mg/kg/injection, schedule: Q01DX009 (ip), vehicle: Klucel (hydroxypropylcellulose) (HPC)
[2] = dose: 25.0 mg/kg/injection, schedule: Q01DX009 (ip), vehicle: Klucel (hydroxypropylcellulose) (HPC)
[3] = dose: 100.0 mg/kg/injection, schedule: Q01DX009 (ip), vehicle: Klucel (hydroxypropylcellulose) (HPC)
[4] = dose: 1.56 mg/kg/injection, schedule: Q01DX009 (ip), vehicle: Klucel (hydroxypropylcellulose) (HPC)
[5] = dose: 3.12 mg/kg/injection, schedule: Q01DX009 (ip), vehicle: Klucel (hydroxypropylcellulose) (HPC)
[6] = dose: 6.25 mg/kg/injection, schedule: Q01DX009 (ip), vehicle: Klucel (hydroxypropylcellulose) (HPC)
[7] = dose: 100.0 mg/kg/injection, schedule: Q01DX005 (ip), vehicle: Klucel (hydroxypropylcellulose) (HPC)
[8] = dose: 200.0 mg/kg/injection, schedule: Q01DX005 (ip), vehicle: Klucel (hydroxypropylcellulose) (HPC)
[9] = dose: 240.0 mg/kg/injection, schedule: Q01DX005 (ip), vehicle: saline with Tween-80
[10] = dose: 200.0 mg/kg/injection, schedule: Q01DX009 (ip), vehicle: Klucel (hydroxypropylcellulose) (HPC)
[11] = dose: 200.0 mg/kg/injection, schedule: Q01DX009 (ip), vehicle: saline with Tween-80
[12] = dose: 400.0 mg/kg/injection, schedule: Q01DX009 (ip), vehicle: saline with Tween-80
[13] = dose: 400.0 mg/kg/injection, schedule: Q04DX003 (ip), vehicle: saline with Tween-80

In the case of `C[C@@H](CN1CC(=O)NC(=O)C1)N1CC(=O)NC(=O)C1`, the T/C (dose: 2.0 mg/kg/injection, schedule: Q01DX009 (ip), vehicle: Klucel (hydroxypropylcellulose) (HPC)) is reported as 143 % of control, the T/C [1] is reported as 147 and 148 % of control [4 of 6 alive] and the T/C (dose: 16.0 mg/kg/injection, schedule: Q01DX005 (ip), vehicle: suspension in saline) is reported as 128 % of control. The survivor count [2] was 1 of 6, the T/C (dose: 32.0 mg/kg/injection, schedule: Q01DX005 (ip), vehicle: suspension in saline) was 134 % of control and the T/C (dose: 37.5 mg/kg/injection, schedule: Q04DX003 (ip), vehicle: saline) was 130 % of control. The T/C (dose: 64.0 mg/kg/injection, schedule: Q01DX005 (ip), vehicle: suspension in saline) was 137 % of control, the T/C (dose: 64.0 mg/kg/injection, schedule: Q01DX005 (iv), vehicle: suspension in saline) was 133 % of control and the T/C (dose: 75.0 mg/kg/injection, schedule: Q04DX003 (ip), vehicle: saline) was 127 % of control. For the same compound, the T/C [3] was 148 % of control, the T/C (dose: 128.0 mg/kg/injection, schedule: Q01DX005 (iv), vehicle: suspension in saline) was 130 and 144 % of control and the T/C (dose: 150.0 mg/kg/injection, schedule: Q04DX003 (ip), vehicle: saline) was 133 % of control. For the same compound, the T/C (dose: 256.0 mg/kg/injection, schedule: Q01DX009 (ip), vehicle: Klucel (hydroxypropylcellulose) (HPC)) was 135 % of control, the T/C (dose: 300.0 mg/kg/injection, schedule: Q04DX003 (ip), vehicle: saline) was 137 % of control and the survivor count (dose: 400.0 mg/kg/injection, schedule: Q01DX009 (ip), vehicle: Klucel (hydroxypropylcellulose) (HPC)) was 6 of 6. The survivor count (dose: 512.0 mg/kg/injection, schedule: Q01DX009 (ip), vehicle: Klucel (hydroxypropylcellulose) (HPC)) was 6 of 6, the survivor count (dose: 800.0 mg/kg/injection, schedule: Q01DX009 (ip), vehicle: Klucel (hydroxypropylcellulose) (HPC)) was 6 of 6 and the T/C (dose: 1024.0 mg/kg/injection, schedule: Q01DX001 (ip), vehicle: Klucel (hydroxypropylcellulose) (HPC)) was 138 % of control. For the same compound, the survivor count (dose: 1600.0 mg/kg/injection, schedule: Q01DX009 (ip), vehicle: Klucel (hydroxypropylcellulose) (HPC)) was 1 of 6 and 2 of 6.
`CCC(C)CN1CCc2c3c(c(OC)c(OC)c2C1)CCC3` (configuration not stated) was tested, and the survivor count (dose: 400.0 mg/kg/injection, schedule: Q04DX002 (ip), vehicle: saline) was 3 of 6.
For `COC1C(O)=C2C(=O)OC(C)(O)/C=C/C=C\C=C/C=C/C(c3ccccc3)NC(=O)/C=C/C=C/C=C/C=C/C2(C)C1O` (configuration not stated), the T/C [4] was 128 % of control, the T/C [5] was 131 % of control and the T/C [6] was 126 % of control. The survivor count [6] was 6 of 6 and the survivor count [2] was 5 of 6.
`Cc1ccc2c(c1)nc(-c1ccccn1)n2CCc1ccncc1` was tested, and the survivor count (dose: 400.0 mg/kg/injection, schedule: Q01DX001 (ip), vehicle: saline with Tween-80) was 1 of 6.
`Cc1cc(N/N=C/c2ccc(F)cc2)c2cc3c(cc2n1)OCO3` was tested, and the survivor count [7] was 1 of 6 and the survivor count [8] was 0 of 6.
With `CNC(=O)OCc1c(-c2ccccc2)c(-c2ccccc2)n(-c2ccc(OC)cc2)c1COC(=O)NC` the T/C (dose: 200.0 mg/kg/injection, schedule: Q01DX009 (ip), vehicle: distilled water + Tween-80) was 127 and 135 % of control and the T/C (dose: 400.0 mg/kg/injection, schedule: Q01DX009 (ip), vehicle: distilled water + Tween-80) was 136 % of control.
For `C1CCC2[N-]CC3CCCCC3[N-]CC3CCCCC3[N-]CC3CCCCC3[N-]CC2C1.[Cu]` (configuration not stated), the T/C (dose: 0.78 mg/kg/injection, schedule: Q01DX009 (ip), vehicle: Klucel (hydroxypropylcellulose) (HPC)) was 132 % of control, the T/C [4] was 125 and 132 % of control and the T/C [5] was 130 and 139 % of control. The T/C (dose: 3.12 mg/kg/injection, schedule: Q01DX009 (ip), vehicle: saline) was 132 % of control, the T/C (dose: 3.12 mg/kg/injection, schedule: Q01DX009 (oral), vehicle: Klucel (hydroxypropylcellulose) (HPC)) was 125 % of control and the T/C [6] was 128 and 145 % of control. For the same compound, the T/C (dose: 6.25 mg/kg/injection, schedule: Q01DX009 (ip), vehicle: saline) was 126 % of control [5 of 6 alive], the T/C [1] was 141 % of control and the survivor count [2] was 0 of 10 and 3 of 10. The survivor count (dose: 50.0 mg/kg/injection, schedule: Q01DX009 (oral), vehicle: Klucel (hydroxypropylcellulose) (HPC)) was 10 of 10.
In the case of `CCN(CC)CCNc1c(C)cccc1Cl`, the survivor count [9] is reported as 0 of 6.
`C[N+](C)(C)C.O=C([CH-]C(=O)C(F)(F)F)c1ccccc1.O=C([CH-]C(=O)C(F)(F)F)c1ccccc1.O=C([CH-]C(=O)C(F)(F)F)c1ccccc1.O=C([CH-]C(=O)C(F)(F)F)c1ccccc1.[Eu+3]` was tested, and the T/C [10] was 125 % of control, the survivor count [11] was 1 of 6 and the survivor count [12] was 0 of 6.
With `CC(C)(C)C(O)c1cccnc1` (configuration not stated) the survivor count [13] was 5 of 6.
In the case of `Nc1nc2c(ncn2C2OC(CO)C(O)C2N)c(=O)[nH]1` (configuration not stated), the survivor count (dose: 12.5 mg/kg/injection, schedule: Q01DX009 (ip), vehicle: saline with Tween-80) is reported as 6 of 6.
`c1ccc2c(c1)Nc1ccncc1S2` was tested, and the survivor count [13] was 4 of 6.
In the case of `CCCCC([Se])=NCCC(C)C`, the survivor count (dose: 50.0 mg/kg/injection, schedule: Q01DX009 (ip), vehicle: Klucel (hydroxypropylcellulose) (HPC)) is reported as 0 of 6, the survivor count [3] is reported as 0 of 6 and the survivor count [10] is reported as 0 of 6.
In the case of `NC(CCCCNC(=S)S)C(=O)O.[Na+].[Zn+2]` (configuration not stated), the T/C [8] is reported as 126 and 127 % of control, the survivor count (dose: 400.0 mg/kg/injection, schedule: Q01DX005 (ip), vehicle: Klucel (hydroxypropylcellulose) (HPC)) is reported as 1 of 6 and the survivor count (dose: 600.0 mg/kg/injection, schedule: Q01DX005 (ip), vehicle: Klucel (hydroxypropylcellulose) (HPC)) is reported as 0 of 6.
`CCOC(=O)C(=CN(C)c1ccc(Cl)cc1)C(=O)OCC` was tested, and the survivor count (dose: 50.0 mg/kg/injection, schedule: Q01DX009 (ip), vehicle: saline) was 6 of 6 and the survivor count (dose: 100.0 mg/kg/injection, schedule: Q01DX009 (ip), vehicle: saline) was 6 of 6.
`COc1ccc(C(N)=O)cc1N=NN(C)C` was tested, and the survivor count [3] was 6 of 6.
In the case of `N/N=C(\Cc1ccccc1)c1ccccc1`, the survivor count (dose: 100.0 mg/kg/injection, schedule: Q01DX009 (ip), vehicle: saline with Tween-80) is reported as 2 of 6, the survivor count [11] is reported as 0 of 6 and the survivor count [12] is reported as 0 of 6.
In the case of `Nc1ncnc2c1nc(Br)n2C1OC2COP(=O)(O)OC2C1O` (configuration not stated), the survivor count (dose: 400.0 mg/kg/injection, schedule: Q01DX009 (ip), vehicle: suspension in saline) is reported as 0 of 6.
For `CC(=O)c1ccc(Cl)c(-n2cccc2)c1`, the survivor count [8] was 5 of 5.
With `O=C([O-])c1ccccc1[O-].[Cu+2].c1ccc(-c2ccccn2)nc1` the survivor count (dose: 25.0 mg/kg/injection, schedule: Q01DX005 (ip), vehicle: Klucel (hydroxypropylcellulose) (HPC)) was 0 of 6, the survivor count (dose: 50.0 mg/kg/injection, schedule: Q01DX005 (ip), vehicle: Klucel (hydroxypropylcellulose) (HPC)) was 0 of 6 and the survivor count [7] was 0 of 6. For the same compound, the survivor count [8] was 0 of 6.
`CC1CCCC/C1=N\N(C)C` (configuration not stated) was tested, and the survivor count [9] was 1 of 6.
With `Cc1ccc(C)c(OP2(=O)NC3CCCCC3N2)c1` (configuration not stated) the survivor count (dose: 400.0 mg/kg/injection, schedule: Q04DX002 (ip), vehicle: Klucel (hydroxypropylcellulose) (HPC)) was 3 of 6.
`[Cl][Pt+2][Cl].[NH-]C1CCC1.[NH2-]` was tested, and the T/C (dose: 0.38 mg/kg/injection, schedule: Q01DX005 (ip), vehicle: saline) was 125 % of control, the T/C (dose: 0.75 mg/kg/injection, schedule: Q01DX005 (ip), vehicle: saline) was 143 % of control and the T/C (dose: 1.5 mg/kg/injection, schedule: Q01DX005 (ip), vehicle: saline) was 148 % of control. The survivor count (dose: 12.0 mg/kg/injection, schedule: Q01DX005 (ip), vehicle: saline) was 5 of 6 and 6 of 6 and the survivor count (dose: 24.0 mg/kg/injection, schedule: Q01DX005 (ip), vehicle: saline) was 1 of 6 and 6 of 6.
